Measurements reported in PubChem BioAssay AID602196 (INSERM, 2012).

Purpose: 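Knock-downs that protect lung cancer cells from cisplatin or sensitise them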
Cells: human A549 lung cancer cells
Knock-down reagent: siRNA pair against human genes
Duration: 48 h transfection before cisplatin; time from cisplatin to read-out not stated
Conditions: cisplatin at a dose killing half of control-siRNA cells; exact dose and duration not given
Measured: 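Shift in cisplatin death relative to control siRNA, from -50 (all cells die) to +50 (no cells die); siRNAs harmful on their own scored 0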
Direction: two-siRNA summed score (-2 to +2): higher = both siRNAs protect from cisplatin killing; -2 means both sensitise; mean protection from cisplatin (shift in death) and protection from cisplatin (shift in death), siRNA C: higher = protection from cisplatin killing
Call rule: 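siRNAs harmful alone (LDH or WST-1) get 0; others get +1 for less and -1 for more cisplatin killing; genes are active when the two siRNAs give the same sign, summing to ±2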
Calls: active = both siRNAs shift cisplatin killing the same way; inactive = no consistent shift, or siRNA harmful alone
Here is a random part of about 23,000 reagents. 455 of them (2%) count as active. 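Active includes both protection and sensitisation; some change values fall well beyond the stated -50 to +50 range.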 Unmarked entries are inactive. Not all columns of the deposit are shown. Reagent sequences are not shown. Not given: the amount of reagent.

gene	two-siRNA summed score (-2 to +2)	mean protection from cisplatin (shift in death) (%)	protection from cisplatin (shift in death), siRNA C (%)
EXOC3L2	-1	2	-13.4
LOC389162	1	10	7.2
EPHX3	0	1.1	-6.8
MAGEB18	0	5.6	2.2
LOC439999	0	5.8	-0.4
PTH	0	0	0.8
POLR3E	0	12.8	9.2
GARNL3	0	5.6	5.9
AURKC	1	6.9	-1.7
ETS2-AS1	0	0.8	2.1
FECH	0	-3	10.4
KLK6	0	-9.8	-16
ATF5	0	5.2	4
HSPA2	0	5.6	13.4
MYO1B	0	-3.2	19.1
PPIB	0	-2.2	-4.6
SNRPD1	0	-5.2	-4
EXOSC8	0	8.7	10.6
CENPF	1	14.5	19.8
STUB1	1	6.3	1.2
NTSR1	0	-3	-15
LOC441127	0	10.7	15.5
SPATA31E1	0	-6.4	-10.3

In a second layout: entries from further up
| gene | two-siRNA summed score (-2 to +2) | mean protection from cisplatin (shift in death) (%) | protection from cisplatin (shift in death), siRNA C (%) |
| --- | --- | --- | --- |
| CENPF | 1 | 14.5 | 19.8 |
| STUB1 | 1 | 6.3 | 1.2 |
